No constants are given. Whether binding was seen depends on the method and setting. Binding seen in cells or lysates may run through a third protein. Some results given as binding are weak or reduced against the parent protein; the word gives no strength. Tags and fused reporters may be left off the sequences shown.
Molecular target: T1, 3 × FLAG-tagged AtCPK5 (Arabidopsis) (UniProt Q38871)
T1 sequence: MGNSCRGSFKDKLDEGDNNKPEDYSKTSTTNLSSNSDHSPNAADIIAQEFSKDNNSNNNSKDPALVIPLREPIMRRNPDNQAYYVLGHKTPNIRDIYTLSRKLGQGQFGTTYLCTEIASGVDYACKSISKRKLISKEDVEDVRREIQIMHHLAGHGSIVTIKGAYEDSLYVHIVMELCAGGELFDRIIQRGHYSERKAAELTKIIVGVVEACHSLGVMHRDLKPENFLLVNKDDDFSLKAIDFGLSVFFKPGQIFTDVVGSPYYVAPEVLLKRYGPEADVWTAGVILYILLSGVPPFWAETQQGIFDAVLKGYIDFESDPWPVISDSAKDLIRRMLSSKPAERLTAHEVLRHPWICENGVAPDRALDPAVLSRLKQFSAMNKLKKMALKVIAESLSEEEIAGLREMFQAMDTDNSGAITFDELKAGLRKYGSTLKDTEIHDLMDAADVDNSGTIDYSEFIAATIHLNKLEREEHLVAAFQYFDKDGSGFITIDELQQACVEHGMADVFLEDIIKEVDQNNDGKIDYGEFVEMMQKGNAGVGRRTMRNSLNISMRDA
Experiment: co-IP; transgenic Arabidopsis seedlings with AtCPK5-3xFLAG and AtLYK5-HA (native promoter), treated with 25 μg/mL chitin or water; lysate (50 mM Tris-HCl pH 7.5, 150 mM NaCl, 2 mM EDTA, 1% Triton X-100, 10% glycerol), anti-FLAG agarose 3 h at 4°C, anti-HA blot

B1: AtLYK5-HA (receptor, UniProt O22808 27-664)
chain: QQPYVNNHQLACEVRVYDNITNGFTCNGPPSCRSYLTFWSQPPYNTADSIAKLLNVSAAEIQSINNLPTATTRIPTRELVVIPANCSCSSSSGGFYQHNATYNLSGNRGDETYFSVANDTYQALSTCQAMMSQNRYGERQLTPGLNLLVPLRCACPTAKQTTAGFKYLLTYLVAMGDSISGIAEMFNSTSAAITEGNELTSDNIFFFTPVLVPLTTEPTKIVISPSPPPPPVVATPPQTPVDPPGSSSSHKWIYIGIGIGAGLLLLLSILALCFYKRRSKKKSLPSSLPEENKLFDSSTKQSIPTTTTTQWSIDLSNSSEAFGLKSAIESLTLYRFNDLQSATSNFSDENRIKGSVYRATINGDDAAVKVIKGDVSSSEINLLKKLNHSNIIRLSGFCIREGTSYLVFEYSENGSISDWLHSSGKKSLTWKQRVEIARDVAEALDYLHNYITPPHIHKNLESTNILLDSNFRAKIANFGVARILDEGDLDLQLTRHVEGTQGYLAPEYVENGVITSKLDVFAFGVAVLELLSGREAVTIHKKKEGEEEVEMLCKVINSVLGGENVREKLKEFMDPSLGNEYPLELAYTMAQLAKSCVATDLNSRPSVTQVLTTLSMIVSSSIDWEPSDDLLRSGSLGN
  binding: binds
